According to article PMC8092218, “NirA Is an Alternative Nitrite Reductase from Pseudomonas aeruginosa with Potential as an Antivirulence Target” (mBio, 2021):
These are yes or no findings as the source states them, for the method shown.

Molecular target: PA4130 (NirA), ammonia:ferredoxin nitrite reductase from Pseudomonas aeruginosa (Pseudomonas aeruginosa PAO1) (UniProt Q9HWQ1)
Assay: SEC; 16/600 Superdex 200 pg column, eluted with 50 mM Tris, 150 mM NaCl, pH 7.5; sample after IMAC and chitin column; both purified

B1: PA4130 (NirA), ammonia:ferredoxin nitrite reductase from Pseudomonas aeruginosa (enzyme, UniProt Q9HWQ1 1-557)
chain: MYQYDEYDQALVSERVAQFRDQIARRLDGELSEEEFLPLRLQNGLYLQKHAYMLRVAIPYGTLSAPQLRALAHVARHYDRGYGHFTTRQNIQFNWIELEQVGDILEHLAGAQMHAIQTSGNCVRNITTEAFAGVAADEWTDPRPLAEILRQWSTVNPEFLFLPRKFKIALSSAVEDRAAVQMHDIGLYLYRHPDAGELRLRVLVGGGLGRTPMLGQVIRDDLPWQHLLSYVEAILRVYNRYGRRDNKYKARIKILVKALGIEAFAREVEEEWQHLRDGPAQLTAEECQRVAERFVLPRYLPPADGELAYGSARAADPAFARWASRNVQAHKVPGYASVVLSTKPGASAPPGDVTAEQMERVADWAERYGFGEIRVAHEQNLVLPDVRLENLHALWREACAAGLGTPNQGLLSDIIACPGGDYCALANAKSIPIAQGIQQRFEDLDHLHDIGELSLNISGCMNACGHHHIGNIGILGVDKSGSEWYQVTLGGAQGKDSALGKVIGPSFSAAEVPAVIERIVETFTDLRVGPERFIDTFNRVGLEPFKARVYARMEEPA
binding: no binding
